PubChem BioAssay AID504764 | Drosophila RNAi Screening Center – 2011
The screen tested about 22,000 reagents; this is a random part of those with a known target gene and a result. In the full data, 403 (1.9%) are marked active. 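Unnormalised raw counts per well; ratio z-scores behind the hit calls and whether each hit raises or lowers signal are not deposited.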 Names joined by + are all predicted targets of the reagent. No sequences are given here. Not stated in the record: the amount of reagent.

Aim: 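Genes whose knock-down alters Notch-dependent transcription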 (primary screen)
System: Drosophila Kc167 cells
Reagent: long dsRNA against Drosophila genes
Time to read-out: about 5 days (4 days dsRNA, then 24 h after transfection)
Treatment: transfection of constitutively active membrane-tethered Notch lacking the extracellular domain, read 24 h later
Measured: 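Firefly luciferase from an E(spl)m3 reporter with active Notch, plus control-promoter and uninduced reporter wells for normalisation; unnormalised counts, duplicate wells a and b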
Scale: induced reporter light, run 1, well a and induced reporter light, run 1, well b: higher = more light from the Notch target reporter with active Notch; control promoter light, run 1, well a and control promoter light, run 1, well b: higher = more light from the viral control promoter (cell number, transfection, viability); uninduced reporter light, run 1, well a: higher = more light from the Notch target reporter without active Notch
Active means: 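Wells with low control signal or poorly matching duplicates excluded; duplicates averaged; per source plate, z beyond ±2 for induced/control log2 ratio or beyond ±1.8 for induced/uninduced marks a hit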
Calls: active = modifier hit (raised or lowered Notch signal); inactive = not a hit

{"predicted target": "CG17652", "amplicon": "DRSC00511", "induced reporter light, run 1, well a": 1.42e5, "induced reporter light, run 1, well b": 1.11e5, "control promoter light, run 1, well a": 1.25e5, "control promoter light, run 1, well b": 99960, "uninduced reporter light, run 1, well a": 9025, "call": "inactive"}
{"predicted target": "CG17267", "amplicon": "DRSC15207", "induced reporter light, run 1, well a": 1.61e5, "induced reporter light, run 1, well b": 1.39e5, "control promoter light, run 1, well a": 1.91e5, "control promoter light, run 1, well b": 1.90e5, "uninduced reporter light, run 1, well a": 10432, "call": "inactive"}
{"predicted target": "cal1 (chromosome alignment defect 1)", "amplicon": "DRSC15725", "induced reporter light, run 1, well a": 2.12e5, "induced reporter light, run 1, well b": 2.21e5, "control promoter light, run 1, well a": 3.20e5, "control promoter light, run 1, well b": 3.49e5, "uninduced reporter light, run 1, well a": 22060, "call": "inactive"}
{"predicted target": "CG10663", "amplicon": "DRSC09770", "induced reporter light, run 1, well a": 2.14e5, "induced reporter light, run 1, well b": 1.55e5, "control promoter light, run 1, well a": 1.88e5, "control promoter light, run 1, well b": 91840, "uninduced reporter light, run 1, well a": 8525, "call": "active"}
{"predicted target": "CG14088", "amplicon": "DRSC10092", "induced reporter light, run 1, well a": 1.14e5, "induced reporter light, run 1, well b": 1.30e5, "control promoter light, run 1, well a": 1.92e5, "control promoter light, run 1, well b": 1.25e5, "uninduced reporter light, run 1, well a": 9195, "call": "inactive"}
{"predicted target": "CG7071 + Muted", "amplicon": "DRSC16189", "induced reporter light, run 1, well a": 1.74e5, "induced reporter light, run 1, well b": 1.78e5, "control promoter light, run 1, well a": 2.04e5, "control promoter light, run 1, well b": 2.29e5, "uninduced reporter light, run 1, well a": 15685, "call": "inactive"}
{"predicted target": "Ccp84Aa", "amplicon": "DRSC12586", "induced reporter light, run 1, well a": 48765, "induced reporter light, run 1, well b": 50420, "control promoter light, run 1, well a": 35535, "control promoter light, run 1, well b": 31405, "uninduced reporter light, run 1, well a": 2755, "call": "inactive"}
{"predicted target": "CG14005", "amplicon": "DRSC02337", "induced reporter light, run 1, well a": 83185, "induced reporter light, run 1, well b": 91965, "control promoter light, run 1, well a": 79695, "control promoter light, run 1, well b": 80550, "uninduced reporter light, run 1, well a": 6790, "call": "inactive"}

The list goes on; the last 2 above are carried over.
{"predicted target": "Ccp84Aa", "amplicon": "DRSC12586", "induced reporter light, run 1, well a": 48765, "induced reporter light, run 1, well b": 50420, "control promoter light, run 1, well a": 35535, "control promoter light, run 1, well b": 31405, "uninduced reporter light, run 1, well a": 2755, "call": "inactive"}
{"predicted target": "CG14005", "amplicon": "DRSC02337", "induced reporter light, run 1, well a": 83185, "induced reporter light, run 1, well b": 91965, "control promoter light, run 1, well a": 79695, "control promoter light, run 1, well b": 80550, "uninduced reporter light, run 1, well a": 6790, "call": "inactive"}
{"predicted target": "kin17", "amplicon": "DRSC11890", "induced reporter light, run 1, well a": 66905, "induced reporter light, run 1, well b": 59080, "control promoter light, run 1, well a": 63495, "control promoter light, run 1, well b": 60550, "uninduced reporter light, run 1, well a": 3345, "call": "inactive"}
{"predicted target": "dpr2 (defective proboscis extension response 2)", "amplicon": "DRSC02370", "induced reporter light, run 1, well a": 1.04e5, "induced reporter light, run 1, well b": 1.34e5, "control promoter light, run 1, well a": 70300, "control promoter light, run 1, well b": 75235, "uninduced reporter light, run 1, well a": 15400, "call": "inactive"}
{"predicted target": "dpr2 (defective proboscis extension response 2)", "amplicon": "DRSC02371", "induced reporter light, run 1, well a": 1.40e5, "induced reporter light, run 1, well b": 1.59e5, "control promoter light, run 1, well a": 59835, "control promoter light, run 1, well b": 1.01e5, "uninduced reporter light, run 1, well a": 19415, "call": "inactive"}
{"predicted target": "CG7968", "amplicon": "DRSC01903", "induced reporter light, run 1, well a": 1.41e5, "induced reporter light, run 1, well b": 1.64e5, "control promoter light, run 1, well a": 1.71e5, "control promoter light, run 1, well b": 1.74e5, "uninduced reporter light, run 1, well a": 12635, "call": "inactive"}
{"predicted target": "CG32772", "amplicon": "DRSC18052", "induced reporter light, run 1, well a": 1.49e5, "induced reporter light, run 1, well b": 1.73e5, "control promoter light, run 1, well a": 2.41e5, "control promoter light, run 1, well b": 1.99e5, "uninduced reporter light, run 1, well a": 9638, "call": "inactive"}
{"predicted target": "CG32772", "amplicon": "DRSC18406", "induced reporter light, run 1, well a": 3.06e5, "induced reporter light, run 1, well b": 2.80e5, "control promoter light, run 1, well a": 4.25e5, "control promoter light, run 1, well b": 4.13e5, "uninduced reporter light, run 1, well a": 18685, "call": "inactive"}
{"predicted target": "Fign (Fidgetin)", "amplicon": "DRSC00592", "induced reporter light, run 1, well a": 2.09e5, "induced reporter light, run 1, well b": 2.08e5, "control promoter light, run 1, well a": 2.69e5, "control promoter light, run 1, well b": 2.82e5, "uninduced reporter light, run 1, well a": 19700, "call": "inactive"}
{"predicted target": "CG10863", "amplicon": "DRSC08145", "induced reporter light, run 1, well a": 1.39e5, "induced reporter light, run 1, well b": 1.10e5, "control promoter light, run 1, well a": 84945, "control promoter light, run 1, well b": 29340, "uninduced reporter light, run 1, well a": 10665, "call": "inactive"}
{"predicted target": "Alg2 (ALG2, alpha-1,3/1,6-mannosyltransferase)", "amplicon": "DRSC08298", "induced reporter light, run 1, well a": 1.04e5, "induced reporter light, run 1, well b": 1.26e5, "control promoter light, run 1, well a": 1.10e5, "control promoter light, run 1, well b": 58595, "uninduced reporter light, run 1, well a": 15190, "call": "inactive"}
{"predicted target": "Flacc (Fl(2)d-associated complex component)", "amplicon": "DRSC20040", "induced reporter light, run 1, well a": 1.14e5, "induced reporter light, run 1, well b": 88295, "control promoter light, run 1, well a": 62220, "control promoter light, run 1, well b": 47110, "uninduced reporter light, run 1, well a": 9845, "call": "inactive"}
